EP1313504B1
Results are given in words; binding and its absence hold for the method and conditions named. Some binding calls cover weakened binding; strength is not graded here.

Chains of the proteins cited; added tags and fusions are not shown. Residues count along the entry.
UniProt P04272, residues 2-339: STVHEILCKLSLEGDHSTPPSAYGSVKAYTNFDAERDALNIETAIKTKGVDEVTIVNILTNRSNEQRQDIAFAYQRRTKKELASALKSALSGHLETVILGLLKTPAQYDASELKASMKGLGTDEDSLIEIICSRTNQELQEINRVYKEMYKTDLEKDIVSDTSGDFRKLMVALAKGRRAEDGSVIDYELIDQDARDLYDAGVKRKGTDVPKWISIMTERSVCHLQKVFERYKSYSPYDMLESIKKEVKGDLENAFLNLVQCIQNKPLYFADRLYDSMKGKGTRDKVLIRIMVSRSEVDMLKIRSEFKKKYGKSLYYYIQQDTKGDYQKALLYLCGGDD
UniProt P00747, residues 99-459: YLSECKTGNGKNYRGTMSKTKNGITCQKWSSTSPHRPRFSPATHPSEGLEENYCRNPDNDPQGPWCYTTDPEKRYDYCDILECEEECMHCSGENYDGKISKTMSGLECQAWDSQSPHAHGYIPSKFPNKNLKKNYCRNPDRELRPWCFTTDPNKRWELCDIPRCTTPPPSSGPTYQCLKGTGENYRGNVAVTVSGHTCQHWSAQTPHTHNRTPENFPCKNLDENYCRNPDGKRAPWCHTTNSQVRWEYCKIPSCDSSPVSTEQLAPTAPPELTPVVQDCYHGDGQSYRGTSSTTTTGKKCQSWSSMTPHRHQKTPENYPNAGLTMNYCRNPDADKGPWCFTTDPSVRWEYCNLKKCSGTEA

What was measured:
[1] = target: annexin II (35 kDa angiostatin binding protein from bovine aortic endothelial cells) (bovine) (UniProt P04272); test: ligand blot of BAEC subcellular fractions
[2] = target: annexin II (35 kDa angiostatin binding protein from bovine aortic endothelial cells) (bovine) (UniProt P04272); test: ligand immunoblot of BAEC membrane fraction, angiostatin 1 µg/ml, detected with anti-K1-3 antibody
[3] = target: annexin II (35 kDa angiostatin binding protein from bovine aortic endothelial cells) (bovine) (UniProt P04272); test: ligand blot of purified 35 kDa fractions, angiostatin 1 µg/ml
[4] = target: annexin II (35 kDa angiostatin binding protein from bovine aortic endothelial cells) (bovine) (UniProt P04272); test: ligand blot of BAEC lysate

Measured: binding

angiostatin (38 kDa elastase fragment of human plasminogen, kringle 1-4) (from UniProt P00747 99-459) (ligand)
binds: all assays above
